Most values lie at the floor of the assay. Slopes are relative: functional sequences can read slightly below zero.
Test system: Saccharomyces cerevisiae PS128 hsf1 delta, HSF1(1-493) fusion
Experiment: growth estimate (transactivation domain function in HSF1 fusion, heat-shock survival) (a.u. (slope of normalised read count over time)); higher = stronger growth at 37°C, i.e. more transactivation activity
Conditions: library: random library

Substance	growth estimate
TAGP	< -0.25
TAGSEPAGAACQKSLNLGCN	< -0.25
TAHAIKSPMGHVSIYVESLA	< -0.25
TAHPPHERNVTAQARTSRRE	< -0.25
TAIFFAVNIMRSGRCNRRTR	< -0.25
TAIRTGYVPEANILSATICR	< -0.25
TAISGYGLRR	< -0.25
TAL	< -0.25
TALLVTGIVDRYWCLGPFTG	< -0.25
TALRCIGRLGICPSISASSK	< -0.25
TALRGDSNHRKYRLF	< -0.25
TALRSRDSKSDRITGTDVGR	< -0.25
TANQETLMTHGRRRFSAFAS	< -0.25
TAPLQGGASRCTRGQDSGVT	< -0.25
TAPSSERRQLVRQRA	< -0.25
TAQLFPASCGWRV	< -0.25
TARWFS	< -0.25
TASCERRGKFRLAVFDFRRL	< -0.25
TASESVWLSHLPSTKF	< -0.25
TASWHRVWNDVIVHSTREVQ	< -0.25
TATETRVYEWAN	-0.229
TATRGRMYVSAHRSSAIQPA	< -0.25
TATSWIWVDKTGMRAYLITD	< -0.25
TAVCPFRRGFPTDSHREFGQ	< -0.25

Substance	growth estimate
TAVYLLPSVEMAVPASLLRV	< -0.25
TAWGRWHSTCRWTLGYCQVT	< -0.25
TAYDARFGWSFLAIQGTTAF	< -0.25
TCAKWKKCLSVAAVIFTVTS	< -0.25
TCCL	< -0.25
TCD	< -0.25
TCEWCRLAPATDILIRSAAR	< -0.25
TCFSPSSANLANTSGSMTRR	< -0.25
TCGRAEASVFTAALTCLRSS	< -0.25
TCHFDIDNGYAWYVLQSSPG	< -0.25
TCIDLVPGAVTSNVLDTSPG	< -0.25
TCIGRCCSPVLRSMV	< -0.25
TCIRESSDQVRYCAAEKGAK	< -0.25
TCNRDGEGMVFLHNTKLGAW	< -0.25
TCNRSVRNLLGVKS	< -0.25
TCPAQTGRVGARRGTVIKLA	< -0.25
TCPVRLAD	< -0.25
TCPVYSNIRHISSEMENMSS	< -0.25
TCQPADKITG	< -0.25
TCR	< -0.25
TCSQIVVPCGVGLIRGRRL	< -0.25
TCYQRPDRMAVDLVQEYVVV	< -0.25
TDAAVQFSGE	-0.237
TDAESVKILGLRKSSFPGGR	-0.235

Substance	growth estimate
TDAREI	< -0.25
TDASAITSLGRCVAWRGGVL	< -0.25
TDASVTLYPLS	< -0.25
TDCQLPLGSRFVSRSRRRHG	< -0.25
TDGCRSYQRSILQCRWGGIG	< -0.25
TDGHVVGRVR	< -0.25
TDGSSVVDILI	< -0.25
TDHASMWFGDALRITLGSVE	< -0.25
TDHVLVSP	< -0.25
TDIRCEVQRNITPN	< -0.25
TDKECVPPKLVSCGPTWYLW	< -0.25
TDLTQYTWPERSTRHISMLF	< -0.25
TDLVAVIRITWLERRVWDSR	< -0.25
TDPRVQGI	< -0.25
TDRLY	< -0.25
TDRPRVVRRCGTIFLDGLMP	< -0.25
TDRQGMRGGVTAPDC	< -0.25
TDSFWRRSGSANA	< -0.25
TDSGSTLSKWHTEYSQLLFR	< -0.25
TDTERAVDDVSYGLGPIIVS	< -0.25
TDTGREAVIRKELIPCNMNL	< -0.25
TDVGTHTEGLTSHARAPYAR	< -0.25
TDVGTISRNHCLIHRNPT	< -0.25
TDVNSELWADSVRDNGGMRW	-0.236

Substance	growth estimate
TDVPSVESRPRWKNQATSNN	< -0.25
TDYLKRMALRVNRSGSRALV	< -0.25
TECLSIET	< -0.25
TEEAL	-0.226
TEEVLVRSRSRV	< -0.25
TEGCGPTCSGDTVAKALAPV	< -0.25
TEIGHGRLPADDKAPQACLG	< -0.25
TEKWGSP	< -0.25
TELDVKCQQSRFSR	< -0.25
TELPCYRCVQTISLVKSYSL	< -0.25
TEMILGQGGLIWGDPSEHGM	-0.219
TEMLIGEQVAQSPAKDAVPP	< -0.25
TEMVGTMRELNQALRVEPFT	< -0.25
TEPVRLGLLRGRTSNRQSEK	< -0.25
TEQYYESRDHLSVPQMRAAA	< -0.25
TERGSALHLPSAP	< -0.25
TESGMRQGMGVFTVAIASGV	< -0.25
TETVGVEPMCKGMERIRVCC	< -0.25
TEVQISPQ	< -0.253
TFAA	-0.245
TFACHIPHIIRVKGGVCVVS	< -0.25
TFAGRSPVAVYCSSCRSTLP	< -0.25
TFALT	< -0.25
TFARGKLQIAEILAGRRLG	< -0.25

Laid out differently: entries from further up.
Substance,growth estimate
TDRPRVVRRCGTIFLDGLMP,< -0.25
TDRQGMRGGVTAPDC,< -0.25

Quoted at random: 5 entries already listed
Substance	growth estimate
TERGSALHLPSAP	< -0.25
TEQYYESRDHLSVPQMRAAA	< -0.25
TFACHIPHIIRVKGGVCVVS	< -0.25
TEPVRLGLLRGRTSNRQSEK	< -0.25
TDVPSVESRPRWKNQATSNN	< -0.25

Following part

Substance	growth estimate
TFDK	< -0.25
TFEHLQQAP	< -0.25
TFFNELSCGNVPHTTKDVDE	< -0.25
TFHLLLLSS	< -0.25
TFITFKE	< -0.25
TFLDPPCRIADVLRHRVGIL	< -0.25
TFLGGAAHKAGKRIVE	< -0.25
TFLHASRLYGW	< -0.25
TFQSRRLVLTNGSS	< -0.25
TFRGSARLQLIQPNPPPVVH	< -0.25
TFRGWSCNRSEFLERLDKLA	-0.248
TFRQELTEGWTKDWGGIYVV	< -0.25
TFRWFPEGVQPLWNVSSRSL	< -0.25
TFSDVQLAPQPPMCLV	< -0.25
TFSEATMPRVSTRQAREGGR	< -0.25
TFSGLHPYTSDEDPQKPCHN	< -0.25
TFSKL	< -0.25
TFSPQDHDILPGSMASP	-0.138
TFSTRLNGPPTRVRRSARCV	< -0.25
TFSTSADILEVEYWV	< -0.25
TFSVR	< -0.25
TFYPDGWNVRCSSLPRFVLH	< -0.25
TGAGGGRRFILASMLCEFLC	< -0.25
TGAQDDPRYPPISPAVEAHM	< -0.25

Substance	growth estimate
TGASPFRSRSIFVYGSRIIR	< -0.25
TGASRAALSACKSCSTGPTM	< -0.25
TGAV	< -0.25
TGCPRFRAGRTLTSLWTFIF	< -0.25
TGDKWQAAQNKSLGQAPHLC	< -0.25
TGDRVVLTVLNKILEGN	< -0.25
TGDSFLGSVIEGYWY	< -0.25
TGEGSCSYKRHMLREGLYLS	< -0.25
TGFAVYDESDRGAIKV	< -0.25
TGFLVALYH	< -0.25
TGFTVILRLGL	< -0.25
TGGIPQSSRRSRRTSWEYRA	< -0.25
TGGISIRGL	< -0.25
TGGNVCLTSHHFSKDRLSAL	< -0.25
TGGPRVGGPGRLTKSPANG	< -0.25
TGGRRV	< -0.25
TGGRVMVIPGTEIRSFRVVP	< -0.25
TGHCGFSLLELGIYLRA	< -0.25
TGHSLYSLV	< -0.25
TGIDIKTSSQRTCVFAAWLA	< -0.25

2 neighbouring entries already listed:
Substance	growth estimate
TGASPFRSRSIFVYGSRIIR	< -0.25
TGASRAALSACKSCSTGPTM	< -0.25

— the supplement of paper PMC5949888
